Data as given in PubChem BioAssay AID504467 (National Center for Advancing Translational Sciences (NCATS), 2011).
The whole screen tested about 330,000 compounds, of which about 7,700 (2.3%) were called active. The shares of active, inactive and inconclusive entries below differ from those in the screen. Calls follow the shape of the dose curve; as a rule, active = well fitted inhibition curve with a large enough effect; inconclusive = small, poorly fitted or top-dose-only effect, or effect the other way; inactive = flat fitted curve, though single readings scatter. Where the call is inconclusive, the potency comes from a doubtful curve fit.

Assay: qHTS screen for small molecules that inhibit ELG1-dependent DNA repair in human embryonic kidney (HEK293T) cells expressing luciferase-tagged ELG1; also: nearly all actives have a fitted effect of over 55% in size
Details: HEK293T ELG1-luciferase reporter, luminescence, 16 h, DNA damage induced by 5-fluorouridine; series mostly up to 46.1 µM
In short: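 In this reporter screen, reduction of luminescence relative to DMSO vehicle indicated activity. Compounds and 5-fluorouridine were added together to 2,000 cells per well, incubated for 16 hr at 37 °C, then developed with ONE-Glo.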
Potency is read from the fitted curve at half-maximal effect.

SMILES | Potency
CC(=O)N1CCCN(Cc2cn(-c3cc(C)ccc3C)nc2-c2ccccc2)CC1 | inactive
O=C(c1ccc(Cn2cc(Br)cn2)cc1)N1CCN(c2ccccc2)CC1 | inconclusive: 23.1 µM [inhibitor, single point]
CCOC(=O)C(Sc1ncn[nH]1)c1ccccc1 (centres undefined) | inactive
O=C1c2ccccc2C(=O)N1CCOc1ccccc1Br | inconclusive: 23.1 µM [activator, single point]
O=C1OCCN1C(=O)[C@H]1[C@H](c2ccc(F)cc2)C(c2ccc(F)cc2)=NN1c1ccc(Br)cc1 | inconclusive: 16.4 µM [inhibitor, partial curve, poor fit]
CCOc1ccc(NC(=O)Nc2cc(C)on2)cc1 | inconclusive: 29.1 µM [activator, single point]
COc1ccc(C)cc1NC(=O)c1cnc2sccn2c1=O | inconclusive: 7.31 µM [activator, partial curve]
Cc1ccc(Cl)cc1NC(=O)CNC(=O)N1CC(=O)Nc2ccccc21 | inactive
O=C(Cc1ccc(Br)cc1)Nc1cccc(-c2cn3c(n2)SCC3)c1 | inconclusive: 14.6 µM [inhibitor, partial curve]
O=C(Nc1nnc(C2CC2)s1)c1cc(S(=O)(=O)N2CCN(c3ccccc3)CC2)ccc1Cl | inactive
CC(C)[C@H](NS(=O)(=O)c1ccc2c(c1)OCCO2)C(=O)OCC(=O)Nc1ccccc1 | inconclusive: 14.6 µM [activator, partial curve, poor fit]
CC1CCc2c(sc3[nH]c(=S)n(C)c(=O)c23)C1 (centres undefined) | inconclusive: 4.11 µM [activator, single point]
CCOc1ccc(N2CC(C(=O)Nc3cccnc3)CC2=O)cc1 (centres undefined) | inactive
CCC(CO)Oc1cc(NC(=O)c2cccc(Cl)c2)c2ncn(C(C)C)c2c1 (centres undefined) | inconclusive: 11.6 µM [inhibitor, partial curve, poor fit]
Cc1ccc(SCC(=O)OCC(=O)N(CCC#N)c2ccccc2)cc1C | inactive
CCn1c(SCC(=O)Nc2nc3ccccc3s2)nc2c(c1=O)SC(C)C2 (centres undefined) | inconclusive: 16.4 µM [inhibitor, single point]
CC(C)(C)C(=O)N1CCN(c2ccnc3cc(Cl)ccc23)CC1 | inconclusive: 11.6 µM [inhibitor, partial curve, poor fit]
C#CCCc1cocc1/C=[N+](\[O-])c1ccc(C(=O)OCC)cc1 | inconclusive: 20.6 µM [activator, single point]
COc1ccc(CNC(=O)C(CC(C)C)NC(=O)c2ccccc2C)cc1 (centres undefined) | inactive

3 compounds already listed, ordered by SMILES length, rising:
SMILES | Potency
Cc1ccc(Cl)cc1NC(=O)CNC(=O)N1CC(=O)Nc2ccccc21 | inactive
CCC(CO)Oc1cc(NC(=O)c2cccc(Cl)c2)c2ncn(C(C)C)c2c1 (centres undefined) | inconclusive: 11.6 µM [inhibitor, partial curve, poor fit]
CC(C)[C@H](NS(=O)(=O)c1ccc2c(c1)OCCO2)C(=O)OCC(=O)Nc1ccccc1 | inconclusive: 14.6 µM [activator, partial curve, poor fit]
